{
  "source": "patent US20210338782A1",
  "about": "“STORAGE STABLE SOMATOSTATIN-DOPAMINE CHIMERIC COMPOUNDS AND SALT FORMS THEREOF” (Cydan II, Inc., priority 2019, published 2021)",
  "experiment": "Solid state (thermolytic) stability of TBR-760 salt forms, open container, UPLC peak purity and appearance",
  "format": "physicochemical",
  "conditions": "two weeks at 60° C., open dish",
  "method": "Each TBR-760 salt was further evaluated for thermolytic stability over time by setting up three different exposure conditions (25° C. at 60% relative humidity (RH); 40° C. at 75% RH; or 60° C. with open and closed container systems (open dish/closed dish). Approximately 50 mg of each salt form was weighed in a nitrogen-flushed glove box for use in the studies. All samples were stored at −20° C. in a good laboratory practice (GLP) freezer both before and after exposure to the indicated conditions.\nThe stability of each salt form was assessed by monitoring the post-exposure drug peak purity and by evaluating the post-exposure visual appearance of the salt. The samples were removed from the exposure conditions and allowed to equilibrate to ambient conditions for 15-20 mins. An appropriate amount of each sample was weighed for analysis and dissolved in diluent (deionized water containing 0.1% TFA) to obtain a stock concentration of 1 mg/mL. The stock solution was then diluted to 0.125 mg/mL in an HPLC vial using diluent and the samples were run on a Waters Acquity UPLC system using the parameters shown in Table 4.",
  "note": "Where a name gives a salt, the structure may show the parent alone. Some of these results come from one statement about several compounds together.",
  "data": [
    {"smiles": "CCCN1C[C@H](CSCC(=O)NCCCC[C@@H](NC(=O)CSC[C@@H]2C[C@@H]3c4cccc5[nH]cc(c45)C[C@H]3N(CCC)C2)C(=O)N[C@H]2CSSC[C@@H](C(=O)N[C@H](C(N)=O)[C@@H](C)O)NC(=O)[C@H](CC)NC(=O)[C@H](CCCCN)NC(=O)[C@@H](Cc3c[nH]c4ccccc34)NC(=O)[C@H](Cc3ccc(O)cc3)NC2=O)C[C@@H]2c3cccc4[nH]cc(c34)C[C@H]21", "note": "[TBR-760 tosylate, Dop2-D-Lys(Dop2)-cyclo[Cys-Tyr-D-Trp-Lys-Abu-Cys]-Thr-NH2]", "values": [
      {"measurement": "additional degradants in chromatogram versus control", "setting": "listed as tosylate salt", "result": "≥ 4"}
    ]},
    {"smiles": "CCCN1C[C@H](CSCC(=O)NCCCC[C@@H](NC(=O)CSC[C@@H]2C[C@@H]3c4cccc5[nH]cc(c45)C[C@H]3N(CCC)C2)C(=O)N[C@H]2CSSC[C@@H](C(=O)N[C@H](C(N)=O)[C@@H](C)O)NC(=O)[C@H](CC)NC(=O)[C@H](CCCCN)NC(=O)[C@@H](Cc3c[nH]c4ccccc34)NC(=O)[C@H](Cc3ccc(O)cc3)NC2=O)C[C@@H]2c3cccc4[nH]cc(c34)C[C@H]21", "note": "[TBR-760 mesylate, Dop2-D-Lys(Dop2)-cyclo[Cys-Tyr-D-Trp-Lys-Abu-Cys]-Thr-NH2]", "values": [
      {"measurement": "additional degradants in chromatogram versus control", "setting": "listed as mesylate salt", "result": "≥ 4"}
    ]}
  ]
}
